Data set [1] has as its target Tb-RtcB S199C (Thermococcus barophilus) (UniProt F0LKB8). The experiment in a line: disulfide (cystamine) crosslinking, SDS-PAGE. The following applies: 2.5 mM MnCl2, no specific crosslink (position-dependent), up to 1 mM DTT; cystamine on phosphate between nt 1 and 2; 2'-F at nt 1; 3'-phosphate; crosslinking: 50 mM Tris pH 7.5, 25 mM NaCl, 25 mM KCl, 30% glycerol, 2.5 mM MnCl2, 0-1 mM DTT, 37 C 2 h then 24 C 14 h; recombinant protein; protein details: His6-SUMO removed.

Data set [2] concerns the target Tb-RtcB L130C (Thermococcus barophilus) (UniProt F0LKB8). Kind of data set: disulfide (cystamine) crosslinking, SDS-PAGE. Conditions: 2.5 mM MnCl2, no specific crosslink (position-dependent), up to 1 mM DTT; cystamine on phosphate between nt 1 and 2; 2'-F at nt 1; 3'-phosphate; crosslinking: 50 mM Tris pH 7.5, 25 mM NaCl, 25 mM KCl, 30% glycerol, 2.5 mM MnCl2, 0-1 mM DTT, 37 C 2 h then 24 C 14 h; recombinant protein; protein details: His6-SUMO removed.

The record followed here is PMC12135372.

For at least one entry, the source does not settle the construct or the ends of the probe. Negatives hold for the conditions tested.

With AAACACCGGUGGAGG [RNA-2], the binding result in data set [1] and in data set [2] was “no binding” each time.
